Test results reported in publication PMC3157439.
These are yes or no findings as the source states them, for the method shown. For some assays here: In cells and extracts the contact can be indirect. Some binding calls cover weakened binding; strength is not graded here.

The chains behind the UniProt entries cited, without tags or fusion partners.
UniProt Q8CHK4: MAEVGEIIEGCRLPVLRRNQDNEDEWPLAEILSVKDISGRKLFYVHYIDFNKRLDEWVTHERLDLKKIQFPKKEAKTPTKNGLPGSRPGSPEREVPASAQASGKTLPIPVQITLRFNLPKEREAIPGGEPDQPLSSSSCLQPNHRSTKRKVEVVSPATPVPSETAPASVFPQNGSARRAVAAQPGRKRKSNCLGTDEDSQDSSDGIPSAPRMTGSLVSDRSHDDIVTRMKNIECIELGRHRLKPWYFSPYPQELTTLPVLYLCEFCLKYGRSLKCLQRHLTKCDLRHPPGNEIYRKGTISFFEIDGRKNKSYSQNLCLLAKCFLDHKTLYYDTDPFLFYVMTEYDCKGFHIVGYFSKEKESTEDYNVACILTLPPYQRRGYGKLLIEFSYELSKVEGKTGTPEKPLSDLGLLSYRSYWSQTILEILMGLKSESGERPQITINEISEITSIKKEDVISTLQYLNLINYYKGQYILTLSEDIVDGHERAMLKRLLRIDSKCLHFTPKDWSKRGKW

How the values were obtained:
[1] = target: T1, cytoplasmic domain of mouse GPR50 (amino acids 304-592) (mouse) (UniProt O88495); experiment: two-hybrid; sequential transformation of defined constructs in yeast cells, growth assay on selective media
T1 sequence: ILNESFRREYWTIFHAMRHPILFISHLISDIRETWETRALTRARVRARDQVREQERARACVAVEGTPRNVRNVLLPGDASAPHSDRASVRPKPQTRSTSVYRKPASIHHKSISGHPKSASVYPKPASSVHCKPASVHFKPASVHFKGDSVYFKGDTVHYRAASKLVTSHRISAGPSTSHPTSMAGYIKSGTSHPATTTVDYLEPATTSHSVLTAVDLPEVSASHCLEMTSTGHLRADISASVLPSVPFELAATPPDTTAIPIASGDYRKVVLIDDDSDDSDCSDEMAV

[2] = target: full-length myc-tagged GPR50 (mouse) (UniProt O88495); experiment: co-IP; HEK293 cells transfected with flagTip60 and/or mycGpr50 constructs; total cell lysates immunoprecipitated overnight at 4 °C with anti-myc antibody and protein G-Sepharose, blot with anti-flag

| binding [1] | binding [2] | Substance |
| --- | --- | --- |
| binds | – | full length TIP60, two-hybrid fusion (from UniProt Q8CHK4 1-513) |
| – | binds | full-length flag-tagged TIP60 (from UniProt Q8CHK4 1-513) |
